Assay results from patent publication US20100249370 (published 2010).

How the values were obtained:
[1] = general procedure: hybrid (solid and solution phase) peptide synthesis; Sieber resin; TCTU/6-Cl-HOBt/DIEA; conditions: whole synthesis, scale 150 g Sieber resin, 0.55 mmol/g
[2] = general procedure: hybrid (solid and solution phase) peptide synthesis; CTC resin; TCTU/6-Cl-HOBt/DIEA; conditions: whole synthesis, scale 80 g CTC resin, 0.66 mmol/g
[3] = general procedure: hybrid (solid and solution phase) peptide synthesis; CTC resin (fragments with free carboxylic function); Sieber resin (C-terminal fragment); TCTU/6-Cl-HOBt/DIEA; conditions: late stage modification step

## H-^25Pro-Ile-Leu-Pro-Pro-^30Thr-Asn-Val-Gly-Ser-^35Asn-Thr-Tyr-NH2 (III)
[1]
  crude mass: 145.75 g

## P-Ala-Asn-^15Phe-Leu-Val-His-Ser-^20Ser-Asn-Asn-Phe-Gly-OH (II)
[2]
  crude mass: 143 g

## pramlintide
[3]
  final purity (method not given): 97.5%
